Laboratory results published in the supplement of paper PMC9135407.
Where “and” joins values, the source holds several entries; their conditions need not be identical. Equal values may be shown once. Where a name gives a salt, the structure may show the parent alone. ± gives the standard deviation of the averaged measurements. Some of the results follow. Plates or batches differ in their baseline, so values are only roughly comparable.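 Assay uses culture-activated primary human stellate myofibroblasts; lipid droplet recovery indicates inactivation. Measured: proportion of Hoechst-counted cells over a plate-specific Bodipy cutoff, duplicate wells, DMSO and nortriptyline as per-plate negative and positive controls. A hit scores, control-normalized, above the plate's top-tenth-percentile nortriptyline wells or ranks among its three best wells. Final well concentrations not reported.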

Tested on: primary human hepatic stellate cells (donor 1)
Experiment: percent Bodipy-positive cells; higher = more lipid droplet accumulation
Conditions: 48 h
Protocol: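 Primary lipid accumulation screen in primary human hepatic stellate cell myofibroblasts (donor 1, passage 8) in 384-well plates. 100 nL of library compound was pin-transferred into 30 µL medium in duplicate, and cells were treated for 48 h. The 'Scaled' score combines distance from plate baseline, toxicity and reproducibility penalties, and is normalised to nortriptyline (positive) and DMSO (negative) controls on each plate. A hit is defined as scaled >0.85 or among the top 3 wells per plate.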

[1] = library stock concentration: 1 mM
[2] = library stock concentration: 3.33 mM
[3] = library stock concentration: 10 mM

O=C(OCc1ccccc1)[C@H](O)c1ccccc1 [(R)-benzyl Mandelate]
percent Bodipy-positive cells [1]: 11.6 ± 8.2%

CC1(C)S[C@@H]2[C@H](NC(=O)[C@H](N)c3ccc(O)cc3)C(=O)N2[C@H]1C(=O)O [Amoxicillin]
percent Bodipy-positive cells: 24.3 ± 1.1%
percent Bodipy-positive cells [2]: 7.9 ± 1.8%
percent Bodipy-positive cells [3]: 23.5% and 10.7%

CC1(C)S[C@@H]2[C@H](NC(=O)[C@H](N)c3ccc(O)cc3)C(=O)N2[C@H]1C(=O)O [Amoxicillin Sodium]
percent Bodipy-positive cells [2]: 6.78 ± 3.5%
percent Bodipy-positive cells [3]: 12.7 ± 0.43%

CC1(C)S[C@@H]2[C@H](NC(=O)[C@H](N)c3ccc(O)cc3)C(=O)N2[C@H]1C(=O)O
percent Bodipy-positive cells [3]: 16.1 ± 3.5%

O=C(O)/C=C/CCCCCCCCC(=O)O [Traumatic Acid]
percent Bodipy-positive cells [1]: 11.2 ± 3.7%

OCCOCCN1CCN(C2=Nc3ccccc3Sc3ccccc32)CC1
percent Bodipy-positive cells [3]: 35.73 ± 0.3%

OCCOCCN1CCN(C2=Nc3ccccc3Sc3ccccc32)CC1 [Quetiapine fumarate]
percent Bodipy-positive cells (library stock concentration: 2.3 mM): 26.7 ± 3.6%

OCCOCCN1CCN(C2=Nc3ccccc3Sc3ccccc32)CC1 [Quetiapine Fumarate]
percent Bodipy-positive cells [2]: 15.8 ± 3.1%

OCCOCCN1CCN(C2=Nc3ccccc3Sc3ccccc32)CC1 [Quetiapine]
percent Bodipy-positive cells (library stock concentration: 5.2 mM): 26.6 ± 9.7%

COC(=O)C1=C(C)NC(C)=C(C(=O)NCCCN2CCC(c3ccccc3)(c3ccccc3)CC2)C1c1ccc([N+](=O)[O-])cc1 (stereo not given)
percent Bodipy-positive cells [3]: 100%

Cc1ccc(C(=O)Nc2cccc(C(F)(F)F)c2)cc1Nc1nc(-c2cccnc2)nc2c1cnn2C
percent Bodipy-positive cells [2]: 73.5 ± 6%
percent Bodipy-positive cells [3]: 99.19 ± 0.4%

CCCCC[C@@](C)(O)/C=C/[C@H]1[C@H](O)CC(=O)[C@@H]1C/C=C\CCCC(=O)O [15(R)-15-methyl Prostaglandin E2]
percent Bodipy-positive cells [1]: 11.9 ± 3.6%

CCCCC/C=C\C/C=C\CCCCCCCC(=O)OCC [Linoleic Acid ethyl ester]
percent Bodipy-positive cells [1]: 31.2 ± 23%

Oc1ccc(OC2CCCCO2)cc1 (stereo not given) [Deoxyarbutin]
percent Bodipy-positive cells [2]: 17.3 ± 17%
percent Bodipy-positive cells [3]: 41.2 ± 17%

C=C1C[C@@]23CC[C@H]4[C@@](C)(CCC[C@@]4(C)C(=O)O)[C@@H]2CC[C@]1(O)C3 [Steviol]
percent Bodipy-positive cells [3]: 19.7 ± 7.5%

Nc1cccc2c1C(=O)N(C1CCC(=O)NC1=O)C2=O (stereo not given) [Pomalidomide]
percent Bodipy-positive cells [2]: 7.73 ± 1.5%
percent Bodipy-positive cells [3]: 11.1 ± 4.3%

COc1cc(OC)cc(OC)c1 [1,3,5-trimethoxybenzene]
percent Bodipy-positive cells [3]: 35.2 ± 13%

COc1cc(O)c(C(=O)c2ccccc2)cc1S(=O)(=O)O
percent Bodipy-positive cells [3]: 46.7 ± 16%

COc1cc(Nc2ncc(F)c(Nc3ccc4c(n3)N(COP(=O)(O)O)C(=O)C(C)(C)O4)n2)cc(OC)c1OC [Fostamatinib (R788)]
percent Bodipy-positive cells [3]: 88.8 ± 1.3%

O=c1cnn([C@@H]2O[C@H](CO)[C@@H](O)[C@H]2O)c(=O)[nH]1
percent Bodipy-positive cells [3]: 18.4 ± 9.8%

N=C(N)NC(=O)Cc1c(Cl)cccc1Cl [Guanfacine hydrochloride]
percent Bodipy-positive cells: 37.8 ± 18%

N=C(N)NC(=O)Cc1c(Cl)cccc1Cl [Guanfacine HCl]
percent Bodipy-positive cells (library stock concentration: 7.1 mM): 14.3 ± 7.2%

CC/C=C\C/C=C\C/C=C\CCCCCCCC(=O)N[C@@H](Cc1ccc(O)cc1)C(=O)O [N-(.alpha.-Linolenoyl) Tyrosine]
percent Bodipy-positive cells [1]: 14.5 ± 9.6%

Cc1ccc(CC2(O)CCN(CCOc3ccc(O)cc3)CC2)cc1
percent Bodipy-positive cells [3]: 38.3 ± 8.6%

Cc1ccc(NC(=O)Nc2cc(C(F)(F)F)ccc2F)cc1Nc1ccc2c(c1)NC(=O)C2=Cc1ccc[nH]1
percent Bodipy-positive cells (library stock concentration: 2 mM): 74 ± 3.5%
percent Bodipy-positive cells [3]: 99.12 ± 0.39%

CCCCCCCCCC(=O)N[C@@H](Cc1c[nH]c2ccccc12)C(=O)N[C@@H](CC(N)=O)C(=O)N[C@@H](CC(=O)O)C(=O)N[C@@H]1C(=O)NCC(=O)N[C@@H](CCCN)C(=O)N[C@@H](CC(=O)O)C(=O)N[C@H](C)C(=O)N[C@@H](CC(=O)O)C(=O)NCC(=O)N[C@H](CO)C(=O)N[C@@H]([C@H](C)CC(=O)O)C(=O)N[C@@H](CC(=O)c2ccccc2N)C(=O)O[C@@H]1C [DAPTOMYCIN (5 millimolar/DMSO)]
percent Bodipy-positive cells [3]: 26.8 ± 5.1%

CNCc1ccc(C)c(NC(=O)c2ccc(Nc3nc(-c4ccccc4)c4ccccc4n3)cc2)c1
percent Bodipy-positive cells [2]: 98.63 ± 0.54%

CCCCCCC=CCCCCCCCCCCOC(C)=O [11-cis Vaccenyl Acetate]
percent Bodipy-positive cells [1]: 15.7 ± 10%

N[C@@H](Cc1cc(I)c(Oc2cc(I)c(O)c(I)c2)c(I)c1)C(=O)O [L-Thyroxine]
percent Bodipy-positive cells [2]: 9.31 ± 3.4%
percent Bodipy-positive cells [3]: 16.8 ± 12%

N[C@@H](Cc1cc(I)c(Oc2cc(I)c(O)c(I)c2)c(I)c1)C(=O)O [Levothyroxine]
percent Bodipy-positive cells (library stock concentration: 2.6 mM): 10.7 ± 3.6%

N[C@@H](Cc1cc(I)c(Oc2cc(I)c(O)c(I)c2)c(I)c1)C(=O)O
percent Bodipy-positive cells [3]: 25.6 ± 1.3%

CC1(C)CCC(C)(C)c2cc(NC(=O)c3ccc(C(=O)O)cc3)ccc21 [Tamibarotene]
percent Bodipy-positive cells [2]: 8.9 ± 3.1%
percent Bodipy-positive cells [3]: 29 ± 10%

CCCCC1C(=O)CCC2C(CC=CCCCC(=O)O)C(=O)CC12 (stereo not given) [Bicyclo Prostaglandin E2]
percent Bodipy-positive cells [1]: 16.7 ± 4.5%

O=C(CCC/C=C\C[C@@H]1[C@@H](/C=C/[C@@H](O)CCc2ccccc2)[C@H](O)C[C@@H]1O)NC(CO)CO [17-phenyl trinor Prostaglandin F2.alpha. serinol amide]
percent Bodipy-positive cells [1]: 18.2 ± 3.2%

O=C(O)C(O)Cc1ccc(O)c(O)c1 (stereo not given) [Sodium Danshensu]
percent Bodipy-positive cells [2]: 13.3 ± 3.2%
percent Bodipy-positive cells [3]: 10.6 ± 4.1%
